Laboratory results from PubChem BioAssay AID1347075 (National Center for Advancing Translational Sciences (NCATS), 2019).
The whole screen tested about 400,000 compounds, of which about 5,500 (1.4%) were called active. The shares of active, inactive and inconclusive entries below differ from those in the screen. Calls come from the whole dose curve; as a rule, active = well fitted cell-killing curve with a large enough effect; inconclusive = small, poorly fitted or top-dose-only effect, or effect the other way; inactive = flat fitted curve, though single readings scatter. A potency beside an inconclusive call is a rough fit, not a confirmed value.

Assay: qHTS assay for MDR1-selective chemotherapeutics: Primary screen using the parental adenocarcinoma cell KB-3-1; note: nearly all actives have a fitted effect of over 60% in size
Details: KB-3-1 viability, CellTiter-Glo ATP luminescence, 72 h; activity change, negative = cytotoxic: at 46.1 µM (top of the series)
Summary of the method: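 Here the drug-naive KB-3-1 line serves as comparator for MDR sub-line selectivity; cells received compound titrations, 72 h at 37 °C, then CellTiter-Glo readout.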
% is set by controls: 0 for no effect and ±100 for the full control effect; potency is the fitted concentration of half-maximal effect.

Structure (SMILES)	Potency	activity change, negative = cytotoxic
CCC(=N\NC(=O)COc1ccccc1OC)/C(CC)=N/NC(=O)COc1ccccc1OC	inconclusive: 0.13 µM [rising, full curve]	
COc1ccc(-c2cc(C(=O)Oc3ccc([N+](=O)[O-])cc3)c3ccccc3n2)cc1	inactive	
COc1ccc(/C(C)=N/NC(=O)c2nnn(-c3nonc3N)c2-c2cccs2)cc1OC	inactive	
O=C(Nc1ccc(N2CCN(Cc3ccccc3)CC2)cc1)c1ncn[nH]1	inactive	
O=S(=O)(c1cccs1)N1CCN(CCOc2ccc(Cl)cc2)CC1	inconclusive: 18.4 µM [cytotoxic, single point]	
Cn1c(-c2ccc(Br)cc2)cnc1NCc1ccc(C#N)cc1	inconclusive: 13 µM [cytotoxic, partial curve, poor fit]	
CC(C)Oc1ccc(CSC(=N)N)cc1	inactive	
O=C1Nc2ccccc2C1=Nc1ccccc1-c1ccccc1	inconclusive: 20.6 µM [cytotoxic, single point]	
O=C(OCc1cccc(Cl)c1)c1cc([N+](=O)[O-])ccc1N1CCOCC1	inconclusive: 16.4 µM [cytotoxic, single point]	
CC(O)(c1ccccc1)c1nc(-c2ccc3c(c2)OCO3)cs1 (stereo not drawn)	inconclusive: 23.1 µM [cytotoxic, single point]	
COc1cccc(-c2nnc(SCC(=O)NC3CCCCC3)o2)c1	inconclusive: 18.4 µM [cytotoxic, single point]	
Cc1ccc(-c2csc(NC(=O)c3c(C)noc3C)n2)cc1C	inconclusive: 18.4 µM [cytotoxic, single point]	
CCCCCCCn1c2c(c(=N)c3ccccc31)CCC2	inconclusive: 2.06 µM [cytotoxic, partial curve, poor fit]	
CCCCCC(=O)Nc1cccc(C2=NOC3(C2)C[C@@H](C(N)=O)N(C(=O)c2cc([N+](=O)[O-])cc([N+](=O)[O-])c2)C3)c1 (stereo partly drawn)	inconclusive: 29.1 µM [cytotoxic, single point]	
CCc1c(C(=O)NCCc2cccc(C)c2)[nH]c(C)c1C(C)=O	inconclusive: 20.6 µM [cytotoxic, partial curve]	
CCOC(=O)c1[nH]c2ccc(OC)cc2c1NC(=S)N1CCN(c2ccccc2OC)CC1	active: 8.2 µM	
COc1ccc(NC(=O)CC2C(=O)N(C)C(=S)N2CCc2ccc(F)cc2)cc1 (stereo not drawn)	inconclusive: 32.6 µM [cytotoxic, single point]	
Cc1ccc(OCCN2C(=O)c3ccccc3C2=O)c(C)c1	inactive	
CC(=O)c1ccc(NS(=O)(=O)c2ccc(-c3cc(C)no3)s2)cc1	inactive	
O=C(CCCN1C(=O)/C(=C/c2ccccc2)SC1=S)Nc1cccc(O)c1	inconclusive: 29.1 µM [cytotoxic, single point]	
O=C(Nc1ccccc1)c1ccc(-c2ccc([N+](=O)[O-])cc2)o1		inconclusive: 0.409%
CCc1nc2ccc(C(=O)N(CC)CCN(C)C)cn2c1N(CC)C(=O)NCCc1ccccc1	inactive	

Structure (SMILES)	Potency	activity change, negative = cytotoxic
O=C(Nc1ccccc1C(F)(F)F)c1ccc2oc(=O)c(S(=O)(=O)c3ccc(F)cc3)cc2c1	inconclusive: 29.1 µM [cytotoxic, single point]	
Cc1cc(C)n2c(SCC(=O)Nc3cccc(S(N)(=O)=O)c3)nnc2n1	inactive	
CCN(CC)S(=O)(=O)c1ccc2c(c1)C(=NO)c1cc(S(=O)(=O)N(CC)CC)ccc1-2	active: 6.51 µM	
Cc1ccc2nc(-c3cccc(S(=O)(=O)N4CC(C)OC(C)C4)c3)cn2c1 (stereo not drawn)	inconclusive: 29.1 µM [cytotoxic, single point]	
COc1ccc2nc3n(c(=O)c2c1)-c1cc2ccccc2cc1C(=O)NC3Cc1ccccc1 (stereo not drawn)	active: 11.6 µM	
CC(C)(C)OC(=O)[C@H](Cc1ccccc1)NC(=O)c1[nH]cnc1C(=O)N[C@@H](Cc1ccccc1)C(=O)OCc1ccccc1	inconclusive: 29.1 µM [cytotoxic, single point]	
COC(=O)/C(=N/Nc1ccccc1Cl)Sc1nnc(C(O)c2ccccc2)n1-c1ccccc1 (stereo not drawn)	inactive	
O=C1CC(NS(=O)(=O)c2ccc([N+](=O)[O-])cc2)CN1c1ccc(Cl)cc1 (stereo not drawn)	inactive	
CCN(Cc1ccc2c(c1)OCO2)C(=O)/C=C/c1cccc(Br)c1		inconclusive: 13.2%
CCOC(=O)C1=CC[C@@H](c2ccccc2)N(S(=O)(=O)c2ccc(C)cc2)[C@H]1/C=C/c1ccccc1	inactive	
CCCCCCSc1cc(-c2nc3cnccn3c2NCc2ccccc2)ccc1OC	inconclusive: 32.6 µM [cytotoxic, single point]	
CC(=O)c1ccc(-c2nnc(CCC(=O)N3CCCC(C(=O)CC(C)C)C3)o2)s1 (stereo not drawn)	inactive	
COc1ccccc1NS(=O)(=O)c1cccc(C(=O)N/N=C/c2ccc([N+](=O)[O-])o2)c1	inconclusive: 2.59 µM [rising, partial curve, poor fit]	
O=c1c2c(nc3c(-c4ccccc4)c[nH]n13)CCC2	inconclusive: 20.6 µM [cytotoxic, partial curve]	
CC(C)(C)[C@H]1COC(=O)CCCC/C=C\C[C@H](CC(=O)NCCO)C(=O)N1	inconclusive: 29.1 µM [rising, single point]	
Cc1ccc(NC(=O)NC2CCCc3ccccc32)cc1 (stereo not drawn)	inconclusive: 20.6 µM [cytotoxic, single point]	
Cc1cc(C)nc(-n2nc(C)cc2NC(=O)c2ccc(S(=O)(=O)N3CCOCC3)cc2)n1	inactive	
COc1ccc(N2CCN(c3ncnc4scc(-c5ccc(F)cc5)c34)CC2)cc1	inconclusive: 20.6 µM [cytotoxic, single point]	
COc1cccc(C(c2c(NC(=O)c3ccco3)sc(C)c2C)N2CCOCC2)c1 (stereo not drawn)	active: 23.1 µM	
Cc1c(NC(=O)CSc2nnc3c4ccccc4n(CCc4ccccc4)c3n2)c(=O)n(-c2ccccc2)n1C	inconclusive: 29.1 µM [cytotoxic, single point]	
CSc1nccc(NC(=O)c2ccc(C(C)(C)C)cc2)n1	inconclusive: 5.8 µM [cytotoxic, full curve]	

2 of the compounds above, with each value named.
CC(C)(C)OC(=O)[C@H](Cc1ccccc1)NC(=O)c1[nH]cnc1C(=O)N[C@@H](Cc1ccccc1)C(=O)OCc1ccccc1
  Potency: inconclusive: 29.1 µM [cytotoxic, single point]
O=c1c2c(nc3c(-c4ccccc4)c[nH]n13)CCC2
  Potency: inconclusive: 20.6 µM [cytotoxic, partial curve]
